These results are taken from US20260248780A1, “PHARMACEUTICAL COMPOSITIONS” (Birdie Biopharmaceuticals, Inc., priority 2017, published 2026).

Where a name gives a salt, the structure may show the parent alone. This continues a long series; more values of the same kind are listed elsewhere. Marks after values point to notes of the source that are not given here.

A short description of data set [1]: Kinetic solubility in water and bio-relevant media (SGF, FaSSIF, FeSSIF) at RT. Type of data set: physicochemical. The method, then:
After being centrifuged and separated using 0.45 μm Nylon filter, filtrates were collected for HPLC and pH test, and wet cakes for XRPD characterization. If clear solutions were obtained after 24 hours, accurate concentration and purity were measured for the solutions.

Data set [2] can be described thus: Solubility estimation in solvents at RT. Type of data set: physicochemical.

Take `CCOCc1nc2c(N)nc3ccccc3c2n1CC(C)(C)O` [Adipate Type A, resiquimod]: the “S: Solubility” value in data set [1] (FeSSIF, 1 hr) is listed as “C (C: Clear)”; in data set [1] (FeSSIF, 2 hrs), “C (C: Clear)”; in data set [1] (FeSSIF, 4 hrs) it was “C (C: Clear)”; in data set [1] (FeSSIF, 24 hrs), 4.2* mg/mL.

For `CCOCc1nc2c(N)nc3ccccc3c2n1CC(C)(C)O` [Di-HCl salt Type A, resiquimod], the “S: Solubility” value in data set [1] (Water, 1 hr) is reported as “C (C: Clear)”; in data set [1] (Water, 2 hrs), “C (C: Clear)”; in data set [1] (Water, 4 hrs), “C (C: Clear)”; in data set [1] (Water, 24 hrs) it was 3.8* mg/mL.

For `CCOCc1nc2c(N)nc3ccccc3c2n1CC(C)(C)O` [Freebase Type A, 1-[4-amino-2-(ethoxymethyl)imidazo-[4,5-c]-quinolin-1-yl]-2-methylpropan-2-ol], the Solubility entry is listed as “S < 2.3 mg/mL” in data set [2] (Anisole, RT, listed as 807920-05-A); “S > 48.0 mg/mL” in data set [2] (DMAc, RT, listed as 807920-05-A); “S > 44.0 mg/mL” in data set [2] (DMSO, RT, listed as 807920-05-A); “S < 2.1 mg/mL” in data set [2] (H2O, RT, listed as 807920-05-A); “S < 2.2 mg/mL” in data set [2] (MTBE, RT, listed as 807920-05-A); “S > 46.0 mg/mL” in data set [2] (MeOH, RT, listed as 807920-05-A). The Solubility entry in data set [2] (NMP, RT, listed as 807920-05-A) is recorded as “S > 40.0 mg/mL”; in data set [2] (n-heptane, RT, listed as 807920-05-A), “S < 2.0 mg/mL”; in data set [2] (toluene, RT, listed as 807920-05-A), “S < 2.2 mg/mL”. In addition, the “S: Solubility” value in data set [1] (FeSSIF, 1 hr) is 4.9 mg/mL; in data set [1] (FeSSIF, 2 hrs) it was 4.9 mg/mL; in data set [1] (FeSSIF, 4 hrs), 4.9 mg/mL; in data set [1] (FeSSIF, 24 hrs), 4.9* mg/mL.

Consider `CCOCc1nc2c(N)nc3ccccc3c2n1CC(C)(C)O` [Malate Type A, resiquimod], for which the “S: Solubility” value in data set [1] (FeSSIF, 1 hr) is “C (C: Clear)”; in data set [1] (FeSSIF, 2 hrs), “C (C: Clear)”; in data set [1] (FeSSIF, 4 hrs), “C (C: Clear)”; in data set [1] (FeSSIF, 24 hrs) it was 3.5* mg/mL.

On to `CCOCc1nc2c(N)nc3ccccc3c2n1CC(C)(C)O` [Maleate Type A, resiquimod], for which the “S: Solubility” value came to 1.5 mg/mL in data set [1] (FeSSIF, 1 hr); 1.6 mg/mL in data set [1] (FeSSIF, 2 hrs); 1.7 mg/mL in data set [1] (FeSSIF, 4 hrs); 1.6 mg/mL in data set [1] (FeSSIF, 24 hrs).

Regarding `CCOCc1nc2c(N)nc3ccccc3c2n1CC(C)(C)O` [Mono-HCl salt Type A, resiquimod], the “S: Solubility” value in data set [1] (Water, 1 hr) is recorded as “C (C: Clear)”; in data set [1] (Water, 2 hrs), “C (C: Clear)”; in data set [1] (Water, 4 hrs), “C (C: Clear)”.

Take `CCOCc1nc2c(N)nc3ccccc3c2n1CC(C)(C)O` [Phosphate Type A, resiquimod]: the “S: Solubility” value was “C (C: Clear)” in data set [1] (FeSSIF, 1 hr); “C (C: Clear)” in data set [1] (FeSSIF, 2 hrs); “C (C: Clear)” in data set [1] (FeSSIF, 4 hrs); 3.8* mg/mL in data set [1] (FeSSIF, 24 hrs).

Take `CCOCc1nc2c(N)nc3ccccc3c2n1CC(C)(C)O` [Sulfate Type A, resiquimod]: the “S: Solubility” value in data set [1] (FeSSIF, 2 hrs) is given as “C (C: Clear)”; in data set [1] (FeSSIF, 4 hrs) it was “C (C: Clear)”; in data set [1] (FeSSIF, 24 hrs), 4.2* mg/mL.

Consider `CCOCc1nc2c(N)nc3ccccc3c2n1CC(C)(C)O` [sulfate Type A (807919-21-A)], for which the Solubility result is “S < 2.1 mg/mL” in data set [2] (1,4-dioxane, RT); “S < 2.2 mg/mL” in data set [2] (2-MeTHF, RT); “S < 2.0 mg/mL” in data set [2] (Acetone, RT); “S < 2.0 mg/mL” in data set [2] (CHCl3, RT); “S < 2.3 mg/mL” in data set [2] (DCM, RT); “S < 2.2 mg/mL” in data set [2] (Ethyl lactate, RT). For the same compound, the Solubility result in data set [2] (H2O, RT) is given as “S > 44.0 mg/mL”; in data set [2] (IBA, RT), “S < 2.1 mg/mL”; in data set [2] (IPA, RT), “S < 2.2 mg/mL”; in data set [2] (THF, RT), “S < 2.3 mg/mL”.
